From publication PMC11204552 come the findings set out here.

No constants are given. Whether binding was seen depends on the method and setting. Binding can be weak; no strength is given.

This test deals with T1, CfAtg8 (Colletotrichum fructicola).
T1 sequence: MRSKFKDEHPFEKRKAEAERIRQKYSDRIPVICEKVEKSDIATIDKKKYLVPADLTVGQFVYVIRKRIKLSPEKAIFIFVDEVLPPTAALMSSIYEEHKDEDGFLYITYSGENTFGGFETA
In words: two-hybrid; pGADT7 (prey) and pGBKT7 (bait) fusions co-transformed into yeast strain AH109; selected on SD-Leu-Trp, then growth on SD-His/-Leu/-Trp medium.

In the case of “CfAtg4 (Colletotrichum fructicola) (enzyme)”, the binding result is “binds”.
